The list shows a part of the results.

The target in this assay is T1, OsSMF1 (Oryza sativa, UniProt Q6ZLB0 1-436).
T1 sequence: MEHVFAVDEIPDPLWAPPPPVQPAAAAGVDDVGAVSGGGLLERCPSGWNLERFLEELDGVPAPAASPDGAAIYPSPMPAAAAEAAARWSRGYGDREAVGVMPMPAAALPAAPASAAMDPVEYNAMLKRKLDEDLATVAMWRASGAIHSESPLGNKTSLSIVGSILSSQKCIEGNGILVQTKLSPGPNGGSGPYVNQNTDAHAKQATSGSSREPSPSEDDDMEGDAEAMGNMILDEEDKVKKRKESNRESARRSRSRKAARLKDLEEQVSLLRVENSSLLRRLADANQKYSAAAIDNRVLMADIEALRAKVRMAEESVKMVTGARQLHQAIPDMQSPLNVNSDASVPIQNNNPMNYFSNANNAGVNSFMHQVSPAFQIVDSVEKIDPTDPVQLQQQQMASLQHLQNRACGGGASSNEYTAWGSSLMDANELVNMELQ
The assay can be described thus: protein-binding microarray (RPBM); PBS, 2% BSA, 51.3 ng/ul salmon testes DNA, 50 uM zinc acetate, 200 nM TF, 25 C, 1 h; high values mean tight binding. The following applies: protein: recombinant; tags: N-terminal polyhistidine and DsRed monomer fusion (pET32a); chain copies: 2; label: CyDye5-dUTP incorporated in the synthesized complementary strand; 3' TTTTT single-stranded linker to array surface; dsDNA, one strand shown. An outline of the steps: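 The binding signal for each feature is its fluorescence intensity in arbitrary units. An Axon 4000B scanner was used to read a custom Agilent array that had been made double-stranded with Cy5-dUTP primer extension, blocked with 2% BSA, incubated at 25 °C for 1 h with 200 nM protein in PBS, 2% BSA, salmon testes DNA and 50 µM zinc acetate, and washed. The protein was an N-terminal polyhistidine–DsRed transcription factor fusion from E. coli BL21-CodonPlus, purified on Ni–NTA.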
As to “ACTGGTAATATTCGCATATATATATATATATATATATATACGGAGTCACCTAGTGCAG”, the binding signal was 3470 fluorescence intensity (a.u.).

For “AATAATTCCACATCACAATAGGTGTGGAATAAATCCCCTCCGGAGTCACCTAGTGCAG”, the binding signal is 5300 fluorescence intensity (a.u.).

For the sequence “GATGGCGTCATTGAAATTTGACATAGTATTTTATCATTCGCGGAGTCACCTAGTGCAG”, the binding signal was 11500 fluorescence intensity (a.u.).

For “ATTTACGAGACAGTGCCCATTGATACGTGGCAGCAGAACCCGGAGTCACCTAGTGCAG”, the binding signal was 13700 fluorescence intensity (a.u.).

On to “ATTATGCTTTGAAATTAGAGATGGGGTAGCATATTTGTTGCGGAGTCACCTAGTGCAG”, for which the binding signal is 19700 fluorescence intensity (a.u.).

On to “TCGATCTCGCCCAATTTTAGATTCTAATGATCAGGGTAGACGGAGTCACCTAGTGCAG”, for which the binding signal is 14400 fluorescence intensity (a.u.).

Consider “AAGTATGGGCCCGCTGATGTGTAGCCTTGCTTGGAGGCCCCGGAGTCACCTAGTGCAG”, for which the binding signal was 3560 fluorescence intensity (a.u.).

On to “CTATTGGAGCTATAGGGTTCTACAAGTCAGCAAGACATGTCGGAGTCACCTAGTGCAG”, for which the binding signal is 5160 fluorescence intensity (a.u.).

On to “TTCGCCTGCGGCGCGTGACGTCACGTCGTCGTCGTCGGCCCGGAGTCACCTAGTGCAG”, for which the binding signal was 19200 fluorescence intensity (a.u.).

On to “AAGTAGCCCGGATCTCCCAGCTTCCCTCGAGCTGACCTCACGGAGTCACCTAGTGCAG”, for which the binding signal is 3960 fluorescence intensity (a.u.).

On to “GCTGGTGCGCCGCTGCAACCCACGCGTCAAGTTCGCCCGGCGGAGTCACCTAGTGCAG”, for which the binding signal was 3830 fluorescence intensity (a.u.).

Take “CCCACCATCTTTTATTATTTATGTGTAACTGACATGTGGACGGAGTCACCTAGTGCAG”: the binding signal is 3420 fluorescence intensity (a.u.).

For “CTTGATGCGCTCGCCGCTGATCTGGAGGACGTTGCCGTCCCGGAGTCACCTAGTGCAG”, the binding signal is 4150 fluorescence intensity (a.u.).

On to “TACTTGGTCCCACGTGTTATATATACACTGCGTCTTGGAGCGGAGTCACCTAGTGCAG”, for which the binding signal was 8580 fluorescence intensity (a.u.).

For “CATCTCCATTCTTTCATCCTCATCTCTAATGGAGAATTTCCGGAGTCACCTAGTGCAG”, the binding signal is 3920 fluorescence intensity (a.u.).

As for “GGGTCTCATGCGACAGCAGCGGGAAGTGGGTCACTGGGCTCGGAGTCACCTAGTGCAG”, the binding signal was 3810 fluorescence intensity (a.u.).

For the sequence “ACCACGCCATGAGTTGCATCCATGCATGCTTCTATTCATTCGGAGTCACCTAGTGCAG”, the binding signal was 3360 fluorescence intensity (a.u.).

In the case of “TCCATGACTATGCAAAACCATCTATCTCTCTTTAAACATGCGGAGTCACCTAGTGCAG”, the binding signal is 3740 fluorescence intensity (a.u.).

As to “CCTCATTGGCAATGGTGACGAGGGATCGTGGCATTCAGGGCGGAGTCACCTAGTGCAG”, the binding signal was 3980 fluorescence intensity (a.u.).

As for “GCGGTCGAATGCTGCTGCCACCTGCTGTCTCATGATCTTGCGGAGTCACCTAGTGCAG”, the binding signal was 3660 fluorescence intensity (a.u.).

On to “AAACACTGAAATTTTAGCATCACGAAGTTCTCACCGAGACCGGAGTCACCTAGTGCAG”, for which the binding signal was 5200 fluorescence intensity (a.u.).

Regarding “AAGCTAACTTGTGTTGCCTACACAAGTACTAAAATGGCATCGGAGTCACCTAGTGCAG”, the binding signal was 63600 fluorescence intensity (a.u.).

On to “TTGCTTATCCACACACGTAAGCATTGTTTCTTCAGTCTACCGGAGTCACCTAGTGCAG”, for which the binding signal is 18200 fluorescence intensity (a.u.).

“TTACATACTGTATCATACTGACGTCAACGTATAATATTCCCGGAGTCACCTAGTGCAG”: the binding signal is 8340 fluorescence intensity (a.u.).

For the sequence “GCCAATCTCCACCACCACATCATCTTCTTCCTCCTCCACCCGGAGTCACCTAGTGCAG”, the binding signal is 6770 fluorescence intensity (a.u.).

For the sequence “TTAGTGATATGCGAAACATAACTCTATATTGGCCTTCTCCCGGAGTCACCTAGTGCAG”, the binding signal is 35900 fluorescence intensity (a.u.).

Turning to “ACAAACACTAGTACCATTTTGTAAATTATGTATGACGCGGCGGAGTCACCTAGTGCAG”, the binding signal is 7760 fluorescence intensity (a.u.).

For “GCCAGCCGCCGCCGTCGTGTCGCCCGTCGCCGGCCGCCGACGGAGTCACCTAGTGCAG”, the binding signal was 3520 fluorescence intensity (a.u.).

Take “TGGCACATGACACATAACCCCGAGTATTATGATCTTAAAGCGGAGTCACCTAGTGCAG”: the binding signal is 3380 fluorescence intensity (a.u.).

In the case of “GGGGTGTTTGGTTGAGGGGTGGGTGGGATGGATTGGTCCTCGGAGTCACCTAGTGCAG”, the binding signal was 5240 fluorescence intensity (a.u.).

In the case of “AAGTTAATATTTCAGTTACATTGCATCATAATGTTGTTGCCGGAGTCACCTAGTGCAG”, the binding signal was 3650 fluorescence intensity (a.u.).

In the case of “ACCGACTAGCAGGCAGCACGTCATCGCTGGCCTTCATCACCGGAGTCACCTAGTGCAG”, the binding signal is 10900 fluorescence intensity (a.u.).

Consider “GCCGCCGCTCCCTCCCAATGACCCGCCGGATCTCCTAGTGCGGAGTCACCTAGTGCAG”, for which the binding signal is 3160 fluorescence intensity (a.u.).

For “GGCTTGTTTGGTTTGCTATCATGCCAAAATATTGGCAATACGGAGTCACCTAGTGCAG”, the binding signal was 30400 fluorescence intensity (a.u.).

For “CATCAGGCAGTGCATCATCATTCATCACCTTCTCCTCCTTCGGAGTCACCTAGTGCAG”, the binding signal is 3990 fluorescence intensity (a.u.).

As for “AATGGCTGAAAAGCTGTACAATAGGGTGTCAGAAAAGGAACGGAGTCACCTAGTGCAG”, the binding signal is 3720 fluorescence intensity (a.u.).

Turning to “CAATAACCACATCGACAAATATTGCGCACACGCACGCACGCGGAGTCACCTAGTGCAG”, the binding signal is 4910 fluorescence intensity (a.u.).

For “AATTTAGGAGTTAGAACTCTACCAAATAGACCTTACACATCGGAGTCACCTAGTGCAG”, the binding signal was 5170 fluorescence intensity (a.u.).

For “AGAACATGGCCATGCCACATATTGCCATCGCTCCATCGCTCGGAGTCACCTAGTGCAG”, the binding signal was 3310 fluorescence intensity (a.u.).

Consider “CTGCAAAGTGCAATTGAAGGGGCTGAGAATGCATGTTACGCGGAGTCACCTAGTGCAG”, for which the binding signal was 3310 fluorescence intensity (a.u.).

For “AGTCATCCAGTCACCGCCTAGGCCCAGTAACCAATGGTAGCGGAGTCACCTAGTGCAG”, the binding signal is 3330 fluorescence intensity (a.u.).

In the case of “TTACCTCCACTATTATCACTAGCTTGTTCCTATTCTCTGGCGGAGTCACCTAGTGCAG”, the binding signal was 3300 fluorescence intensity (a.u.).

(Values after publication PMC7819943, “Rice protein-binding microarrays: a tool to detect cis-acting elements near promoter regions in rice”.)
